Measured values published in US20190365717A1, “TREATING PATHOLOGICAL CONDITIONS BY DIRECT AND INDIRECT TARGETING OF SIRPA-CD47 INTERACTION” (STICHTING HET NEDERLANDS KANKER INSTITUUT-ANTONI VAN …, priority 2017, published 2019).

System: CD47 in A375 melanoma cells
Experiment: One-dimensional isoelectric focusing of HA-tagged CD47 immunoprecipitates
Assay type: cell-based, human
Conditions: 10 μM SEN177 for 16 h

Structure (SMILES): Cn1cnnc1C1CCN(c2ncccc2-c2ccc(F)nc2)CC1 [SEN177]
- pI of CD47 molecules isolated from QPCTL-knockout cells (A375 QPCTL-knockout cells): did not affect
- pI of CD47 present in wild-type cells (A375 wild-type cells): increased
